The source of these data is PubChem BioAssay AID493014 (National Center for Advancing Translational Sciences (NCATS), 2011).

As usually defined, the AC50 is the midpoint of the concentration-response curve, whichever way the signal moves.

This is one part of the list. The main result of the screen is listed elsewhere. These columns were measured beside it and carry no call. Most of these compounds were active or inconclusive in the main read-out, so they are no random draw. The note in brackets gives the kind of curve behind each potency; many fits are weak.

The experiment is described as follows: qHTS Assay to Find Inhibitors of Chronic Active B-Cell Receptor Signaling. Conditions: ABC-DLBCL IkBa-CBG/CBR reporter, luminescence ratio (green luciferase fused to IkBa over red control in TMD8 lymphoma cells), 4 h; measured here: CBR red luminescence, cell number. A digest of the protocol:
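Concentration-response series (up to 46 uM) were applied to TMD8 dual-reporter cells for 4 h at 37C with doxycycline. Green/red ratio, after filter-overlap correction, defined %Activity; red signal alone was normalised to basal cells and zero luminescence.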
With `CC(=O)Nc1ccc(S(=O)(=O)NC(C)C(=O)OCCOc2ccc(F)cc2)cc1` (stereo unspecified), the AC50 was 29.1 µM [rising, single point].
In the case of `COc1cccc(NC(=O)Nc2cccn(Cc3ccccc3)c2=O)c1` it was 7.08 µM [falling, partial curve]; in that of `O=C(Cc1ccccc1)N/N=C/c1cc(Br)cc(Cl)c1O`, 7.08 µM [rising, partial curve].
In the case of `COc1ccc(C(=O)N(Cc2ccccc2)c2cccc(C)c2)c(OC)c1OC`, the AC50 was 3.55 µM [rising, full curve, poor fit].
Consider `COc1cccc(OCc2nnc(SCC(=O)NCc3ccco3)n2CCc2ccccc2)c1`, for which the AC50 is 35.5 µM [falling, single point].
In the case of `CC1=NN(c2nc3ccccc3s2)C(O)(C(F)(F)F)C1` (stereo unspecified) it was 35.5 µM [rising, single point]; in that of `COc1ccccc1Nc1ccc(NC(=O)c2cccc([N+](=O)[O-])c2C)cc1`, 35.5 µM [falling, single point]; in that of `Cc1cnc(C(=O)Oc2c(C)ccc(C)c2C)cn1`, 35.5 µM [rising, single point].
In the case of `CCCOc1ccc(C2C(=O)N(C3CCCCCC3)CC(=O)N2Cc2ccco2)cc1OC` (stereo unspecified) it was 25.9 µM [rising, single point].
Consider `CN1CCN(c2ccc(Cl)cc2NC(=O)CN2C(=O)NC(C)(c3ccccc3)C2=O)CC1` (stereo unspecified), for which the concentration at half-maximal activity (AC50) was 32.6 µM [falling, single point].
Consider `CC(=O)NC1C(Oc2ccccc2C)OC(CO)C(O)C1O` (stereo unspecified), for which the AC50 was 35.5 µM [rising, single point].
Turning to `CC(C)c1ccc(N2C=Nc3ccc(C(C)C)cc3C2)cc1`, the half-maximal activity concentration (AC50) is 0.891 µM [falling, full curve, poor fit].
With `COc1ccc(-c2noc(CSc3nc(-c4ccccc4)cc(=O)[nH]3)n2)cc1OC`, the half-maximal activity concentration (AC50) was 2 µM [falling, partial curve, poor fit].
As for `CCc1nnc(N/N=C/c2ccc(-c3ccc([N+](=O)[O-])cc3)o2)n1N`, the AC50 is 35.5 µM [falling, single point].
In the case of `N#C/C(=C/c1ccc(N2CCOCC2)o1)C(=O)NC1CCCCC1` it was 10 µM [falling, partial curve].
With `CCc1c(C)nc2c(-c3ccccc3)c(C)nn2c1Nc1ccc(NC(C)=O)cc1` the figure was 10 µM [falling, partial curve, poor fit]; with `Cc1nc2nc(NCc3cccs3)nn2c(C)c1Cl`, 13 µM [falling, single point].
In the case of `CO/C=C\C=C/c1nnn(-c2ccc(Cl)cc2)n1` it was 18.4 µM [rising, single point].
Regarding `Cc1cccc(N/C=C/C(=C(C#N)C#N)N(C)C)c1`, the AC50 is 14.6 µM [rising, single point].
In the case of `Cc1ccc2nc(NCC(N)=O)nc(-c3ccccc3)c2c1` it was 3.55 µM [falling, partial curve, poor fit]; in that of `Oc1c(N=Nc2ccccc2)sc2ccccc12`, 0.891 µM [falling, full curve]; in that of `Cc1nnc(Oc2ccc([N+](=O)[O-])cc2)c2ccccc12`, 35.5 µM [rising, single point].
With `COc1ccc(NC(C)C(=O)N/N=C/c2cc(Br)ccc2OC)cc1` (stereo unspecified) the figure was 35.5 µM [falling, single point]; with `CCOC(=O)Cn1c(=O)oc2cc(S(=O)(=O)Nc3cc(Cl)ccc3OC)ccc21`, 32.6 µM [falling, single point].
In the case of `CCOCCCNc1nc2c(-c3ccccc3)nnn2c2ccccc12` it was 14.6 µM [falling, partial curve]; in that of `Nc1nc(NCCOCCO)nc(Nc2cccc(F)c2)c1[N+](=O)[O-]`, 35.5 µM [falling, single point]; in that of `CCc1cc(SC#N)cc(C)c1NC(=O)CCl`, 6.51 µM [rising, single point].
On to `O=C(CN1CCCC1)Nc1c(C(=O)C2CC2)oc2ccccc12`, for which the AC50 was 2.82 µM [falling, single point].
`CC(C)Oc1ccc(/C(O)=C2/C(=O)C(=O)N(CCN(C)C)C2c2cccs2)cc1` (stereo unspecified): the AC50 was 29.1 µM [falling, single point].
With `COc1ccc(CNC(=O)CCS(=O)(=O)Cc2ccc(C)cc2)c(OC)c1` the figure was 28.2 µM [rising, partial curve, poor fit]; with `Cc1cc(S(=O)(=O)Nc2cc(C)c(O)c(C)c2)c(C)s1`, 32.6 µM [falling, single point].
With `O=C1NCCN/C1=C\C(=O)c1ccc(Cl)cc1` the figure was 10 µM [falling, partial curve].
In the case of `CC1(C)NC(=O)N(CC(O)COc2cccc(F)c2)C1=O` (stereo unspecified) it was 9.2 µM [rising, partial curve, poor fit]; in that of `CCOC(=O)Cc1nnc(Nc2ccc(C)cc2C)c2ccccc12`, 29.1 µM [rising, single point].
`CCc1cc[n+](-c2nc3ccccc3nc2[N-]S(=O)(=O)c2ccc(Br)s2)cc1`: the half-maximal activity concentration (AC50) is 23.1 µM [falling, single point].
In the case of `O=C(CSCc1ccccc1Cl)N/N=C/c1ccco1` it was 1.58 µM [rising, partial curve, poor fit].
In the case of `CCOc1ccccc1N1Cc2ccccc2C1` it was 4.11 µM [falling, full curve, poor fit].
Turning to `C=CCc1cccc2ccc(=O)oc12`, the half-maximal activity concentration (AC50) is 8.2 µM [rising, partial curve, poor fit].
In the case of `COc1cc(C(=O)NC2CCN(C)CC2)ccc1Nc1ncc2c(n1)N(C1CCC(O)CC1)CCC(=O)N2C` (stereo unspecified), the concentration at half-maximal activity (AC50) was 16.4 µM [rising, single point].
In the case of `Cc1cccc(C)c1NC(=O)C[N+](C)(C)CC(O)COc1cccc2ccccc12` (stereo unspecified), the AC50 is 4.47 µM [rising, single point].
`Cc1ccc(NS(=O)(=O)c2ccc(OCC(=O)NCc3cccnc3)cc2)cc1`: the AC50 was 20.6 µM [rising, partial curve, poor fit].
With `COc1cccc(N2CC(=O)N(NC(=O)c3sc4nc(C)cc(C)c4c3N)CC2=O)c1` the figure was 14.1 µM [falling, partial curve, poor fit]; with `COc1ccc(NC(=O)C(=O)NNC(=O)c2ccc(Cl)cc2Cl)cc1`, 35.5 µM [falling, single point].
With `O=C(N/N=C/c1ccc(-c2cccc(C(F)(F)F)c2)o1)c1cccc(F)c1` the figure was 23.1 µM [falling, partial curve]; with `c1ccc(OCc2cc(-c3ccccc3)no2)cc1`, 35.5 µM [falling, single point].
In the case of `COc1cc(COCC(O)CN2CCN(CCN3C(=O)c4cccc5cccc(c45)C3=O)CC2)cc(OC)c1OC` (stereo unspecified) it was 1.03 µM [rising, full curve, poor fit]; in that of `CCOC(=O)c1ccc(NC(=O)CN(C)S(=O)(=O)c2ccc(Br)s2)cc1`, 16.4 µM [falling, partial curve]; in that of `COc1ccc(CC(=O)NCCCc2ccccc2)cc1OC`, 35.5 µM [rising, single point].
Consider `O=C(N/N=C/c1ccc(N2CCOCC2)cc1)c1ccc(O)cc1`, for which the half-maximal activity concentration (AC50) is 8.91 µM [falling, partial curve].
With `O=C(Nc1nc2c(F)cccc2s1)c1ccc2c(c1)OCCO2` the figure was 1.58 µM [falling, full curve, poor fit].
With `CCn1c(C)cc(/C=C2/SC(=O)N(CC(=O)N3CCCC3)C2=O)c1C` the figure was 14.1 µM [rising, single point].
In the case of `COc1ccc(Br)cc1C(=O)Nc1cccc2ncccc12` it was 15.8 µM [rising, single point]; in that of `Nc1nonc1-n1nnc(C(=O)N/N=C/c2ccc(Cl)cc2Cl)c1CN1CCCC1`, 0.631 µM [falling, partial curve, poor fit]; in that of `CCOC(=O)c1cccnc1SCC(=O)Nc1ccc(C)cc1`, 0.282 µM [rising, full curve, poor fit].
On to `O=C(NCc1ccccc1)c1cc2ccc(O)cc2oc1=O`, for which the AC50 is 10 µM [falling, partial curve, poor fit].
In the case of `CCOC(=O)C1CCN(C(=O)c2cccs2)CC1` it was 0.631 µM [rising, full curve, poor fit].
As to `O=C(/C=C\c1ccc2c(c1)OCO2)NC1(C(=O)Nc2ccc3c(c2)OCO3)CCCCC1`, the AC50 is 14.6 µM [falling, partial curve, poor fit].
With `Cc1ccc(NC(=O)c2ccc([N+](=O)[O-])cc2)cc1S(=O)(=O)N(C)C` the figure was 0.708 µM [rising, partial curve, poor fit]; with `Clc1ccc(OCc2cnc(Cl)s2)cc1`, 10 µM [rising, partial curve].
In the case of `Cc1ccc(OCC(=O)N2CCN(C(=O)CCC3CCCC3)CC2)cc1` it was 0.00411 µM [rising, full curve, poor fit].
With `CCOC(=O)/C(=C/c1c(C)n(C)c2ccc([N+](=O)[O-])cc12)C(C)=O`, the AC50 was 10.3 µM [falling, partial curve].
With `CN(C)CCn1c2c(c(SCC(=O)Nc3cccc4ccccc34)nc1=O)CCCC2` the figure was 16.4 µM [falling, single point]; with `O=C(NNC(=O)c1ccc2c(=O)n3c(nc2c1)CCC3)c1cccc(Cl)c1`, 29.1 µM [falling, single point].
With `CCN(CC)C(=O)Cn1cc(C(=O)C(=O)N2CCc3ccccc32)c2ccccc21` the figure was 7.94 µM [falling, partial curve]; with `CC(Oc1ccc2c(-c3ccccc3)cc(=O)oc2c1)C(=O)N1CCOCC1` (stereo unspecified), 23.1 µM [rising, partial curve, poor fit]; with `Cc1ccc(S(=O)(=O)N/N=C/c2c[nH]c3ccccc23)cc1`, 11.2 µM [falling, partial curve, poor fit].
